From PMC12297416 come the findings set out here.

By UniProt entry, the sequences of proteins in these tests, tags left out. Where a name states a change or a piece, a line headed by the entry shows the natural chain unless it says otherwise. Residues count along the entry.
UniProt P0A705: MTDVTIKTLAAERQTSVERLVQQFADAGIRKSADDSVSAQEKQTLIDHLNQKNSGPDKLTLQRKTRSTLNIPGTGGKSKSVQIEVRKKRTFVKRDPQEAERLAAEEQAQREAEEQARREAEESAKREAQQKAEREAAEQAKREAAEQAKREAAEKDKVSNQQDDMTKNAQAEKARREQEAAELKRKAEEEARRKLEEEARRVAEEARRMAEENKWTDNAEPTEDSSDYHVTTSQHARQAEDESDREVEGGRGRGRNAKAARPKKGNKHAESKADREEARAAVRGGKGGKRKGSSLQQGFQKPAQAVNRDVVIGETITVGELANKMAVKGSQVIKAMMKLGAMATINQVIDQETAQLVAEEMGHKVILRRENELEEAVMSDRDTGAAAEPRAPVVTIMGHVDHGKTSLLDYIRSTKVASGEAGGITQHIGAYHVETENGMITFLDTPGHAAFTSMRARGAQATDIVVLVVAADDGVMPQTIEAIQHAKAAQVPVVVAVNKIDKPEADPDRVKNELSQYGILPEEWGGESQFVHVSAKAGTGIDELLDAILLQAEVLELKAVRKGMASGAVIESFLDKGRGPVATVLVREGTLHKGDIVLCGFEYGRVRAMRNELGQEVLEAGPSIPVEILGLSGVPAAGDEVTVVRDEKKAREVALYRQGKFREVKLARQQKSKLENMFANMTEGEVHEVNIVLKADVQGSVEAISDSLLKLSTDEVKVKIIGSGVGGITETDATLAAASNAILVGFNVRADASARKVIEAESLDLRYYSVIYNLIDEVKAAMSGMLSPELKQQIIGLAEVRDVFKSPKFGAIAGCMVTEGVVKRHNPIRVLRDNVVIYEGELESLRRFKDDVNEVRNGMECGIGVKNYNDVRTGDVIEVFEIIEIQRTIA
6His-IF2γ: residues 165-890 of P0A705

The target in assay [1] is 6His-IF2γ (E. coli K-12 MG1655) (UniProt P0A705). The assay is described as follows: pull-down; His-tagged IF2 variants overexpressed in E. coli with chromosomal NusA-HaloTag (or plasmid-borne HaloTag alone); lysate loaded on HisPur cobalt resin at 4 °C, 20 mM Tris-HCl pH 7.5, 200 mM NaCl, 5 mM MgCl2, 5% glycerol, wash with 20 mM imidazole, elution with 300 mM imidazole; HaloTag proteins detected in SDS-PAGE by JFX549 dye.

The target in assay [2] is 6His-IF2α (E. coli K-12 MG1655) (UniProt P0A705). The description is as above.

These are yes or no findings as the source states them, for the method shown. Binding seen in cells or lysates may run through a third protein. Some binding calls cover weakened binding; strength is not graded here.

As to “NusA-HaloTag (from UniProt P0AFF6 1-495)”, the binding entry in assay [1] was “no binding”; in assay [2] it was “binds”.
